24 compounds from PubChem BioAssay AID192 (DTP/NCI, 2004) can be followed below.

The list shows only some results of the screen, not a fair sample: it gathers tests that were run many times, whatever their T/C, doses with no T/C, and many T/C values between a quarter and a half above the control. Further doses and runs are listed elsewhere. T/C: endpoint of the treated group in % of that of the vehicle group. Some entries give survivors of the animals treated and no T/C: the source holds a T/C of zero for them, seemingly a mark for toxic or unscored doses. Some survivor counts are full or nearly so, which does not show that the dose was tolerated: survival well below the control is almost never listed, so the zero probably covers shortened survival too. Survivors were counted at the toxicity check, usually on the fifth day, unless a day is given; later deaths do not show. Schedule codes are those of the source, taken here to give the interval after Q, in days (D) or hours (H), and the number of doses after X. Some entries hold several experiments; their values stand side by side, smallest first. Some molecules as drawn cover several salts, stereoisomers or complexes of the source; a dose is that of the sample tested. For survival time, the PubChem record calls one and a half times the control and up active, and a quarter to a half above the control has no call in these data; cut-offs in other NCI protocols can differ. Some T/C values are followed by the survivors on the day toxicity was checked, most often the fifth; where none is given, no animal had died by that day.

For this assay, the system named is BDF1 mice, B16 melanoma ip, median survival T/C. The assay can be described thus: NCI In Vivo Anticancer Drug Screen. Data for tumor model B16 Melanoma (intraperitoneal) in B6D2F1 (BDF1) mice. Particulars: T/C endpoint: median survival time, higher T/C = longer survival. The procedure, abridged:
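Read-out: survival or tumor size, given as treated/control ratio. Controls received vehicle only; animals bore transplantable tumors.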

Setting [1] is: dose: 100.0 mg/kg/injection, schedule: Q01DX009 (ip), vehicle: saline.
Where [2] appears, read: dose: 200.0 mg/kg/injection, schedule: Q01DX009 (ip), vehicle: saline.
Setting [3] is: dose: 400.0 mg/kg/injection, schedule: Q01DX009 (ip), vehicle: saline.
[4] abbreviates: dose: 50.0 mg/kg/injection, schedule: Q01DX009 (ip), vehicle: Klucel (hydroxypropylcellulose) (HPC).
[5] abbreviates: dose: 100.0 mg/kg/injection, schedule: Q01DX009 (ip), vehicle: Klucel (hydroxypropylcellulose) (HPC).
Setting [6] is: dose: 200.0 mg/kg/injection, schedule: Q01DX009 (ip), vehicle: Klucel (hydroxypropylcellulose) (HPC).
Setting [7] is: dose: 50.0 mg/kg/injection, schedule: Q01DX009 (ip), vehicle: saline with Tween-80.
Setting [8] is: dose: 100.0 mg/kg/injection, schedule: Q01DX009 (ip), vehicle: saline with Tween-80.
The mark [9] stands for this setting: dose: 200.0 mg/kg/injection, schedule: Q04DX003 (ip), vehicle: Klucel (hydroxypropylcellulose) (HPC).
Setting [10] is: dose: 400.0 mg/kg/injection, schedule: Q01DX009 (ip), vehicle: Klucel (hydroxypropylcellulose) (HPC).
[11] abbreviates: dose: 200.0 mg/kg/injection, schedule: Q01DX009 (ip), vehicle: saline with Tween-80.
Setting [12] is: dose: 400.0 mg/kg/injection, schedule: Q01DX009 (ip), vehicle: saline with Tween-80.

Regarding `CCC(NC(=O)OC(C)(C)C)C(=O)O` (stereo not given), the survivor count is given as 10 of 10 under setting [1], 10 of 10 under setting [2] and 9 of 10 under setting [3].

With `CC(=O)CC(C)=O.CC(=O)CC(C)=O.CC(=O)CC(C)=O.[V]`, the survivor count was 10 of 10 (dose: 12.5 mg/kg/injection, schedule: Q01DX009 (ip), vehicle: saline) and 3 of 10 (dose: 25.0 mg/kg/injection, schedule: Q01DX009 (ip), vehicle: saline).

Consider `NC(=O)c1cn(C2OC(CO)C(O)C2O)c2ncnc(N)c12` (stereo not given), for which the survivor count is listed as 6 of 6 (dose: 0.5 mg/kg/injection, schedule: Q01DX009 (ip), vehicle: water); 6 of 6 (dose: 1.0 mg/kg/injection, schedule: Q01DX009 (ip), vehicle: saline); 5 of 6 (dose: 1.0 mg/kg/injection, schedule: Q01DX009 (ip), vehicle: water); 12 of 12 (dose: 1.5 mg/kg/injection, schedule: Q01DX009 (ip), vehicle: saline); 6 of 6 (dose: 2.0 mg/kg/injection, schedule: Q01DX009 (ip), vehicle: saline); 6 of 6 (dose: 4.0 mg/kg/injection, schedule: Q01DX009 (ip), vehicle: saline). For the same compound, the survivor count (dose: 8.0 mg/kg/injection, schedule: Q01DX009 (ip), vehicle: saline) is recorded as 0 of 6.

For `CC(=O)OCc1cc(=O)n(C)c2c3c4c(cc12)c(C)cc(=O)n4CO3`, the T/C is 126 % of control (dose: 6.25 mg/kg/injection, schedule: Q01DX009 (ip), vehicle: Klucel (hydroxypropylcellulose) (HPC)); 129 % of control (dose: 12.5 mg/kg/injection, schedule: Q01DX009 (ip), vehicle: Klucel (hydroxypropylcellulose) (HPC)); 138 % of control (dose: 25.0 mg/kg/injection, schedule: Q01DX009 (ip), vehicle: Klucel (hydroxypropylcellulose) (HPC)); 138 and 140 % of control under setting [4]. In addition, the survivor count under setting [5] is 8 of 10 and 10 of 10; the survivor count under setting [6] is 0 of 10.

Consider `C1CCN(CCC2CCNCC2)CC1`, for which, under setting [1], the survivor count is on record as 8 of 10.

As to `CNC(=S)N/N=C(/C)CCC/C(C)=N/NC(=S)NC`, the survivor count is, setting by setting: under setting [7], 5 of 10; under setting [8], 4 of 10.

As for `CC(=O)c1cccc(NC2C(N)C(NC(=O)N(C)C)(C(C)O)C(C)(O)C2(O)COC(=O)c2c(C)cccc2O)c1` (stereo not given), the T/C (dose: 0.6 mg/kg/injection, schedule: Q01DX009 (ip), vehicle: saline with Tween-80) is 126 % of control [9 of 10 alive]; the T/C (dose: 1.2 mg/kg/injection, schedule: Q01DX009 (ip), vehicle: saline with Tween-80) is 135 % of control; the T/C (dose: 2.0 mg/kg/injection, schedule: Q01DX009 (ip), vehicle: Klucel (hydroxypropylcellulose) (HPC)) is 129 % of control [9 of 10 alive]; the T/C (dose: 2.4 mg/kg/injection, schedule: Q01DX009 (ip), vehicle: saline with Tween-80) was 137 % of control; the T/C (dose: 2.4 mg/kg/injection, schedule: Q01DX009 (ip), vehicle: saline) is 129 % of control. Also, the survivor count runs as follows: (dose: 4.0 mg/kg/injection, schedule: Q01DX009 (ip), vehicle: Klucel (hydroxypropylcellulose) (HPC)) 5 of 10; (dose: 4.8 mg/kg/injection, schedule: Q01DX009 (ip), vehicle: saline with Tween-80) 9 of 10; (dose: 4.8 mg/kg/injection, schedule: Q01DX009 (ip), vehicle: saline) 10 of 10.

Consider `C/C=C(/C#N)c1ccccc1`, for which, for the setting “dose: 200.0 mg/kg/injection, schedule: Q04DX003 (ip), vehicle: saline with Tween-80”, the survivor count is listed as 1 of 10.

With `Cc1ccc(S(=O)(=O)N(CCCCN(S(=O)(=O)c2ccc(C)cc2)S(=O)(=O)c2ccc(C)cc2)S(=O)(=O)c2ccc(C)cc2)cc1`, the survivor count under setting [9] is 9 of 10.

`O=C1Nc2ccccc2/C1=C\c1ccccc1O`: the survivor count under setting [4] was 1 of 10 and 10 of 10; the survivor count under setting [5] is on record as 5 of 10; the survivor count under setting [6] was 9 of 10; the survivor count under setting [10] is listed as 7 of 10.

On to `CC1(C)OC2OC(COC(=O)c3ccccc3)C(=O)C2O1` (stereo not given), for which the survivor count under setting [11] is 10 of 10.

Regarding `CCCC[N+](CCCC)(CCCC)CCCC.Cc1ccc([SH2+])c([SH2+])c1.Cc1ccc([SH2+])c([SH2+])c1.[Fe+3]`, the survivor count is given as 10 of 10 under setting [10] and 10 of 10 under setting [12].

`O=C(NCCCl)NC1c2cc(Cl)ccc2-c2c(Cl)cc(Cl)cc21` (stereo not given): the survivor count was 6 of 6 under setting [1]; 6 of 6 under setting [2]; 6 of 6 under setting [3]; 6 of 6 (dose: 800.0 mg/kg/injection, schedule: Q01DX009 (ip), vehicle: saline).

`CCCCCCCC(=O)Nc1ccc(C)cc1`: under setting [9], the survivor count is listed as 10 of 10.

In the case of `CCCCCCCCCCCCCCP(I)(N(C)C)(N(C)C)N(C)C`, the survivor count is, setting by setting: (dose: 0.75 mg/kg/injection, schedule: Q01DX009 (ip), vehicle: saline with Tween-80) 10 of 10; (dose: 1.5 mg/kg/injection, schedule: Q01DX009 (ip), vehicle: saline with Tween-80) 0 of 10; (dose: 3.0 mg/kg/injection, schedule: Q01DX009 (ip), vehicle: saline with Tween-80) 5 of 10.

For the compound `Nc1nncs1`, the survivor count reads like this: (dose: 64.0 mg/kg/injection, schedule: Q01DX009 (ip), vehicle: saline) 10 of 10; (dose: 128.0 mg/kg/injection, schedule: Q01DX009 (ip), vehicle: other) 6 of 6; (dose: 128.0 mg/kg/injection, schedule: Q01DX009 (ip), vehicle: saline) 9 of 10; (dose: 256.0 mg/kg/injection, schedule: Q01DX009 (ip), vehicle: other) 6 of 6; (dose: 256.0 mg/kg/injection, schedule: Q01DX009 (ip), vehicle: saline) 8 of 10.

On to `Cc1cc(N(CCCl)CCCl)ccc1C=Nc1cccnc1`, for which the T/C under setting [11] is 127 % of control. Also, under setting [12], the survivor count was 10 of 10.

In the case of `O=[N+]([O-])c1ccc(S(=O)(=O)O)c([N+](=O)[O-])c1.[Ag]`, the survivor count (dose: 50.0 mg/kg/injection, schedule: Q04DX003 (ip), vehicle: DMSO) is 1 of 10.

For `O=C(Nc1ccc(C2=NCCCN2)cc1)c1ccc(C(=O)Nc2ccc(C3=NCCCN3)cc2)nc1`, under “dose: 2.5 mg/kg/injection, schedule: Q01DX009 (ip), vehicle: saline with Tween-80”, the survivor count is 10 of 10.

Consider `[Cl][Pt+2][Cl].[NH-]CC(=O)O.[NH-]CC(=O)O`, for which the survivor count under setting [8] was 7 of 10, the survivor count under setting [11] is 7 of 10 and the survivor count under setting [12] is recorded as 5 of 10.

In the case of `CCN1CC(CCN2CCOCC2)C(c2ccccc2)(c2ccccc2)C1=O` (stereo not given), the survivor count is given as 0 of 10 under setting [2] and 0 of 10 under setting [3].

Take `Cc1cccc(CN2CCN(C(c3ccccc3)c3ccc(Cl)cc3)CC2)c1` (stereo not given): the survivor count runs as follows: under setting [5], 10 of 10; under setting [6], 3 of 10; under setting [9], 10 of 10; (dose: 400.0 mg/kg/injection, schedule: Q04DX003 (ip), vehicle: Klucel (hydroxypropylcellulose) (HPC)) 9 of 10.

Regarding `CC1CN=C(c2ccc(NC(=O)c3ccc(C(=O)Nc4ccc(C5=NCC(C)N5)cc4)cc3)cc2)N1` (stereo not given), the survivor count was 9 of 10 under setting [4], 10 of 10 under setting [5], 9 of 10 under setting [6] and 10 of 10 under setting [10].

`ClC1CC[N-]CC1.ClC1CC[N-]CC1.[Cl][Pt+2]([Cl])([Cl])[Cl]`: the T/C (dose: 25.0 mg/kg/injection, schedule: Q01DX009 (ip), vehicle: saline with Tween-80) is 132 % of control. Further, the survivor count under setting [7] is reported as 10 of 10.
